Literature values, collected in US20080020421A1, “METHODS OF SCREENING AGENTS FOR CYTOTOXIC AND ANTIMICROBIAL ACTIVITY” (priority 2006, published 2008).
Some of these results come from one statement about several compounds together. For at least one compound, name, drawing or mass did not settle the structure.

How the values were obtained:
[1] = system: M. avium; conditions: previous work, microbroth assay; cited from earlier work
[2] = system: M. smegmatis; conditions: previous work, microbroth assay; cited from earlier work

CC(C)=CCC1=C(O)C(=O)c2ccccc2C1=O [Compound Q4, lapachol, reference compound]
antimycobacterial activity against M. avium (in words) [1]: significant antimycobacterial activity | antimycobacterial activity against M. smegmatis (in words) [2]: significant antimycobacterial activity

CC1=CC(=O)c2c(O)cccc2C1=O [Compound Q1, plumbagin, reference compound]
antimycobacterial activity against M. avium (in words) [1]: significant antimycobacterial activity | antimycobacterial activity against M. smegmatis (in words) [2]: significant antimycobacterial activity

CCCC1=C(CCC)C(=O)c2ccccc2C1=O [Compound Q8]
antimycobacterial activity against M. avium (in words) [1]: significant antimycobacterial activity
